Data as given in PubChem BioAssay AID1224831 (NIAID, 2016).
This is one part, drawn at random, of about 3,500 reagents. 731 of all reagents (21%) were called active. 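Active means either lowered or raised reporter signal; the gene-median score did not drive the per-siRNA calls.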 The numbers tell different reagents against one gene apart.

Assay: 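Retesting screen hits on the TLR4-driven TNF response with six separate siRNAs each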 (follow-up of hits)
Cells: human THP-1 B5 monocytic leukaemia cells carrying a TNF promoter luciferase reporter, made macrophage-like with PMA
Knock-down reagent: single siRNA against human genes, 50 nM
Duration: about 68 h of knock-down, then 4 h LPS
Conditions: LPS (Salmonella minnesota, TLR-grade) at 10 ng/ml for 4 h; PMA 5 ng/ml present during knock-down
Read-out: 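TNF promoter reporter read as dual luciferase ratio after 4 h LPS, normalised per plate to its median, given as replicate mean robust z-score per siRNA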
Scale: TNF reporter z-score: higher = stronger LPS-induced TNF reporter signal; z-score, median over gene's siRNAs: higher = stronger TNF reporter signal across the gene's siRNAs
Call rule: 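Active when the replicate mean z-score is about -1 or lower, or about 1.5 or higher; lowered and raised TNF reporter signal both count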
Calls: active = changed TNF reporter (either direction); inactive = little change

KLHL41 #1 | TNF reporter z-score, replicate mean = 0.88; z-score, median over gene's siRNAs = 0.485; Call = inactive
KLHL41 #2 | TNF reporter z-score, replicate mean = 0.17; z-score, median over gene's siRNAs = 0.485; Call = inactive
KLHL41 #3 | TNF reporter z-score, replicate mean = 0.8; z-score, median over gene's siRNAs = 0.485; Call = inactive
KLHL41 #4 | TNF reporter z-score, replicate mean = -0.27; z-score, median over gene's siRNAs = 0.485; Call = inactive
KLHL41 #5 | TNF reporter z-score, replicate mean = 0.9; z-score, median over gene's siRNAs = 0.485; Call = inactive
KLHL41 #6 | TNF reporter z-score, replicate mean = -0.09; z-score, median over gene's siRNAs = 0.485; Call = inactive
SAMD1 #1 | TNF reporter z-score, replicate mean = -0.02; z-score, median over gene's siRNAs = -0.325; Call = inactive
SAMD1 #2 | TNF reporter z-score, replicate mean = -0.03; z-score, median over gene's siRNAs = -0.325; Call = inactive
SAMD1 #3 | TNF reporter z-score, replicate mean = -0.37; z-score, median over gene's siRNAs = -0.325; Call = inactive
SAMD1 #4 | TNF reporter z-score, replicate mean = -0.44; z-score, median over gene's siRNAs = -0.325; Call = inactive
SAMD1 #5 | TNF reporter z-score, replicate mean = -0.28; z-score, median over gene's siRNAs = -0.325; Call = inactive
SAMD1 #6 | TNF reporter z-score, replicate mean = -1.43; z-score, median over gene's siRNAs = -0.325; Call = active
SNAPIN #1 | TNF reporter z-score, replicate mean = -0.04; z-score, median over gene's siRNAs = -0.34; Call = inactive
SNAPIN #2 | TNF reporter z-score, replicate mean = -0.37; z-score, median over gene's siRNAs = -0.34; Call = inactive
SNAPIN #3 | TNF reporter z-score, replicate mean = -0.31; z-score, median over gene's siRNAs = -0.34; Call = inactive
SNAPIN #4 | TNF reporter z-score, replicate mean = 0.41; z-score, median over gene's siRNAs = -0.34; Call = inactive
SNAPIN #5 | TNF reporter z-score, replicate mean = -0.45; z-score, median over gene's siRNAs = -0.34; Call = inactive
SNAPIN #6 | TNF reporter z-score, replicate mean = -0.41; z-score, median over gene's siRNAs = -0.34; Call = inactive
ZNF567 #1 | TNF reporter z-score, replicate mean = -0.34; z-score, median over gene's siRNAs = -0.07; Call = inactive
ZNF567 #2 | TNF reporter z-score, replicate mean = 0.29; z-score, median over gene's siRNAs = -0.07; Call = inactive
ZNF567 #3 | TNF reporter z-score, replicate mean = 1.55; z-score, median over gene's siRNAs = -0.07; Call = active
ZNF567 #4 | TNF reporter z-score, replicate mean = -0.81; z-score, median over gene's siRNAs = -0.07; Call = inactive
ZNF567 #5 | TNF reporter z-score, replicate mean = -0.95; z-score, median over gene's siRNAs = -0.07; Call = inactive
ZNF567 #6 | TNF reporter z-score, replicate mean = 0.2; z-score, median over gene's siRNAs = -0.07; Call = inactive
CCNQ #1 | TNF reporter z-score, replicate mean = -0.15; z-score, median over gene's siRNAs = -0.055; Call = inactive
CCNQ #2 | TNF reporter z-score, replicate mean = 0.51; z-score, median over gene's siRNAs = -0.055; Call = inactive
CCNQ #3 | TNF reporter z-score, replicate mean = 0.04; z-score, median over gene's siRNAs = -0.055; Call = inactive
CCNQ #4 | TNF reporter z-score, replicate mean = -0.59; z-score, median over gene's siRNAs = -0.055; Call = inactive
CCNQ #5 | TNF reporter z-score, replicate mean = -0.96; z-score, median over gene's siRNAs = -0.055; Call = inactive
CCNQ #6 | TNF reporter z-score, replicate mean = 1.06; z-score, median over gene's siRNAs = -0.055; Call = inactive
ART1 #1 | TNF reporter z-score, replicate mean = -0.98; z-score, median over gene's siRNAs = -0.28; Call = inactive
ART1 #2 | TNF reporter z-score, replicate mean = -0.25; z-score, median over gene's siRNAs = -0.28; Call = inactive
ART1 #3 | TNF reporter z-score, replicate mean = -0.78; z-score, median over gene's siRNAs = -0.28; Call = inactive
ART1 #4 | TNF reporter z-score, replicate mean = 0.31; z-score, median over gene's siRNAs = -0.28; Call = inactive
ART1 #5 | TNF reporter z-score, replicate mean = -0.31; z-score, median over gene's siRNAs = -0.28; Call = inactive
ART1 #6 | TNF reporter z-score, replicate mean = 0.71; z-score, median over gene's siRNAs = -0.28; Call = inactive
CHD3 #1 | TNF reporter z-score, replicate mean = 1.03; z-score, median over gene's siRNAs = 0.54; Call = inactive
CHD3 #2 | TNF reporter z-score, replicate mean = 0.1; z-score, median over gene's siRNAs = 0.54; Call = inactive
CHD3 #3 | TNF reporter z-score, replicate mean = 0.55; z-score, median over gene's siRNAs = 0.54; Call = inactive
CHD3 #4 | TNF reporter z-score, replicate mean = 0.53; z-score, median over gene's siRNAs = 0.54; Call = inactive
CHD3 #5 | TNF reporter z-score, replicate mean = 0.1; z-score, median over gene's siRNAs = 0.54; Call = inactive
CHD3 #6 | TNF reporter z-score, replicate mean = 0.72; z-score, median over gene's siRNAs = 0.54; Call = inactive
CDK8 #1 | TNF reporter z-score, replicate mean = 0.94; z-score, median over gene's siRNAs = 0.805; Call = inactive
CDK8 #2 | TNF reporter z-score, replicate mean = -1.34; z-score, median over gene's siRNAs = 0.805; Call = active
CDK8 #3 | TNF reporter z-score, replicate mean = 0.98; z-score, median over gene's siRNAs = 0.805; Call = inactive
CDK8 #4 | TNF reporter z-score, replicate mean = 0.05; z-score, median over gene's siRNAs = 0.805; Call = inactive
CDK8 #5 | TNF reporter z-score, replicate mean = 0.67; z-score, median over gene's siRNAs = 0.805; Call = inactive
CDK8 #6 | TNF reporter z-score, replicate mean = 1.68; z-score, median over gene's siRNAs = 0.805; Call = active
PSMA4 #1 | TNF reporter z-score, replicate mean = -1.4; z-score, median over gene's siRNAs = -1.26; Call = active
PSMA4 #2 | TNF reporter z-score, replicate mean = -1.37; z-score, median over gene's siRNAs = -1.26; Call = active
PSMA4 #3 | TNF reporter z-score, replicate mean = -0.73; z-score, median over gene's siRNAs = -1.26; Call = inactive
PSMA4 #4 | TNF reporter z-score, replicate mean = -1.17; z-score, median over gene's siRNAs = -1.26; Call = active
PSMA4 #5 | TNF reporter z-score, replicate mean = -0.56; z-score, median over gene's siRNAs = -1.26; Call = inactive
PSMA4 #6 | TNF reporter z-score, replicate mean = -1.35; z-score, median over gene's siRNAs = -1.26; Call = active

Records above with an active call:
SAMD1 #6 | TNF reporter z-score, replicate mean = -1.43; z-score, median over gene's siRNAs = -0.325; Call = active
ZNF567 #3 | TNF reporter z-score, replicate mean = 1.55; z-score, median over gene's siRNAs = -0.07; Call = active
CDK8 #2 | TNF reporter z-score, replicate mean = -1.34; z-score, median over gene's siRNAs = 0.805; Call = active
CDK8 #6 | TNF reporter z-score, replicate mean = 1.68; z-score, median over gene's siRNAs = 0.805; Call = active
PSMA4 #1 | TNF reporter z-score, replicate mean = -1.4; z-score, median over gene's siRNAs = -1.26; Call = active
PSMA4 #2 | TNF reporter z-score, replicate mean = -1.37; z-score, median over gene's siRNAs = -1.26; Call = active
PSMA4 #4 | TNF reporter z-score, replicate mean = -1.17; z-score, median over gene's siRNAs = -1.26; Call = active
PSMA4 #6 | TNF reporter z-score, replicate mean = -1.35; z-score, median over gene's siRNAs = -1.26; Call = active
